Experimental data from patent US20250034207A1, “PEPTIDES AND PEPTIDE CONJUGATES FOR TREATING MENTAL DISORDERS” (Kyoto University, priority 2016, published 2025).

tested on: ddY mice; experiment: Tail suspension test in mice after oral administration; assay type: in vivo; settings: rank of relative activity versus SEQ ID NO:1, tail suspension data at 0.3 mg/kg
Experimental: The tail suspension test is an experimental method used to screen potential antidepressant drugs (Can et al., 2012, J Vis Exp., 59: e3769). In the test as implemented in the Examples, a test substance is orally administered to mice (ddY mice, males, 24˜30 g) and 30 minutes later the mice are suspended by their tails for six minutes. The amount of time that a mouse is immobile (i.e. is not displaying escape behavior) during the six minutes is measured to provide an immobility time. The administration of anti-depressant drugs such as imipramine reduces immobility time. Therefore, if a reduction of immobility time is observed when testing a test substance, it can be concluded that the test substance has anti-depressant properties. Immobility is considered a despair state, and, therefore, a reduction of immobility time also indicates an increase in motivation (i.e., that the test substance has motivation-increasing properties).

| Substance | Rank |
| --- | --- |
| AQQSY (Designed peptide) [SEQ ID NO:5] | 14 |
| AQQSYW (Designed peptide) [SEQ ID NO:41] | 17 |
| ESFFLSSTQAQQSY (Designed peptide) [SEQ ID NO:42] | 19 |
| FFLSSTQAQQSYLQ (Designed peptide) [SEQ ID NO:44] | 13 |
| LSSTQ (Designed peptide) [SEQ ID NO:4] | 12 |
| LSSTQAQQ (Designed peptide) [SEQ ID NO:27] | 11 |
| LSSTQAQQS (Designed peptide) [SEQ ID NO:2] | 15 |
| LSSTQAQQSF (Designed peptide) [SEQ ID NO:7] | 2 |
| LSSTQAQQSW (Designed peptide) [SEQ ID NO:6] | 1 |
| LSSTQAQQSY (Designed peptide) [SEQ ID NO:1] | 3 |
| LSSTQAQQSY-NH2 (C-terminal amide; Designed peptide; MOD_RES 10 Carboxyl group of the C-terminus is amidated.) [SEQ ID NO:36, C-terminal amidated peptide conjugate] | 5 |
| LSSTQAQQSYLQGF (Designed peptide) [SEQ ID NO:43] | 18 |
| LSSTQAQQSYW (Designed peptide) [SEQ ID NO:37] | 4 |
| SSTQAQQS (Designed peptide) [SEQ ID NO:28] | 6 |
| SSTQAQQSY (Designed peptide) [SEQ ID NO:3] | 7 |
| STQAQQSY (Designed peptide) [SEQ ID NO:29] | 10 |
| WLSSTQ (Designed peptide) [SEQ ID NO:40] | 8 |
| WLSSTQAQQSY (Designed peptide) [SEQ ID NO:38] | 9 |
| WLSSTQAQQSYW (Designed peptide) [SEQ ID NO:39] | 16 |
